Data: PubChem BioAssay AID2240 (Broad Institute, 2010)
Among all 37,000 compounds or so, about 100 (0.27%) were called active. Inconclusive means that the source gave no clear call. Such entries were picked first, then a sample of the others. Rule as the data show it: active = inhibition above about 85%; inconclusive = no clear call, values can overlap the other calls; inactive = below about 68%.

Experiment: blocks MITF activity, primary screen, MITF inhibitor project, cell-based, luminescence (AID 2240);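 also: human melanocyte line stably carrying TRPM1 promoter luciferase reporter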
Settings: TRPM1 promoter luciferase, 24 h, hits give high values, concentration not given here
In the case of C[C@@H]1CN([C@@H](C)CO)C(=O)c2cc(NC(=O)Cc3cn(C)c4ccccc34)ccc2O[C@@H]1CN(C)C(=O)NC1CCCCC1, the inhibition is reported as inconclusive: 53.9%. For O=C(O)CCC(=O)Cc1ccccc1, the inhibition was inconclusive: 64.9%. With COc1cc(CO)ccc1OCc1cccc(C(=O)O)c1 the inhibition was active: 93.3%. With CCC(C)CC(C)/C=C\C1OC2=C(C(=O)OC2(C)O)C(O)C1O (stereo not drawn) the inhibition was inconclusive: 79.8%. In the case of Cc1ccc2nc(-c3ccc(NC(=O)CSc4nnc(C)s4)cc3)sc2c1, the inhibition is reported as inconclusive: 80.6%. With Cc1oc2c(c1C(=O)NCCC(C)C)C(=O)c1ccccc1C2=O the inhibition was inconclusive: 80.9%. With C[C@H](CO)N1C[C@H](C)[C@H](CN(C)C(=O)Nc2ccc(F)cc2)Oc2c(NC(=O)Nc3cccc4ccccc34)cccc2C1=O the inhibition was inconclusive: 80.6%. With COc1cc(C(=O)Nc2cc(-c3nc4ncccc4o3)ccc2C)ccc1OCc1ccc(Cl)cc1 the inhibition was inconclusive: 81.4%. For CC(C)(C)c1cc(C(=O)CSc2nc3ccccc3[nH]2)cc(C(C)(C)C)c1O, the inhibition was inconclusive: 80.8%. With C=C1C(=O)OC2CC1C(OC(C)=O)C/C(C)=C\CC/C(C)=C\CC[C@]2(C)O (stereo partly drawn) the inhibition was inconclusive: 82.2%. With CC1(C)CC(=O)C=C(Sc2nc3cc(Cl)ccc3s2)C1 the inhibition was inconclusive: 78.6%. For CC(C(=O)Nc1ccc(F)c(F)c1)N(c1ccc(Cl)cc1)S(C)(=O)=O (stereo not drawn), the inhibition was inactive: 32%. In the case of CC(C)(C)c1ccc(C(=O)N2CCN(c3ccc([N+](=O)[O-])c(NCc4cccnc4)c3)CC2)cc1, the inhibition is reported as inconclusive: 83.7%. With CS(=O)(=O)N(CC(=O)Nc1ccc(I)cc1)c1ccc(Cl)c(Cl)c1 the inhibition was inconclusive: 71%. In the case of Cc1ccc(NC(=O)Cn2nc(-c3cccc([N+](=O)[O-])c3)c3ccccc3c2=O)c(C)c1, the inhibition is reported as inactive: 43.3%. For O=C(O)c1cc2cc(Cl)ccc2[nH]1, the inhibition was inconclusive: 50.9%. With COC1C=CC23c4cc5c(cc4CN(C[C@H]2O)[C@@H]3C1)OCO5 (stereo partly drawn) the inhibition was inactive: 54.4%. For Cc1ccc(S(=O)(=O)/C=C/C#N)cc1, the inhibition was active: 88.9%. For Oc1cc(O)cc(/C=C/c2ccc(O)c(O)c2)c1, the inhibition was active: 94.3%. In the case of Cc1nc2ccccc2n1CC(O)COc1ccc(C2C=CCC2)cc1 (stereo not drawn), the inhibition is reported as inconclusive: 78.2%. For CCOC(=O)c1nc2ccccc2c(=O)n1/N=C/c1cc(Cl)cc(Cl)c1O, the inhibition was inactive: 7.73%. With O=c1[nH]c(=O)n(Cc2ccco2)c2c1C(C(F)(F)F)(C(F)(F)F)N=C(c1ccc(F)cc1)N2 the inhibition was inconclusive: 76.4%. In the case of C=C1CCC2[C@](C)(CO)[C@H](O)CC[C@@]2(C)[C@@H]1C/C=C1/C(=O)OC[C@H]1O (stereo partly drawn), the inhibition is reported as inactive: 28.5%.
